For three substances, binding results are on record in doi:10.1101/2025.05.11.653231.

Sequences of proteins named here, by UniProt entry; tags and fusion partners are left off.
UniProt P84078: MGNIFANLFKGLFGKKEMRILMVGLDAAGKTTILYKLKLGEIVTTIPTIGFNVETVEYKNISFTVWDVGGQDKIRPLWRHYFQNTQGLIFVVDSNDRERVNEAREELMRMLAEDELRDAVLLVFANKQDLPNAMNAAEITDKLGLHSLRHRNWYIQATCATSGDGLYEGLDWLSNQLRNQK
UniProt P84077: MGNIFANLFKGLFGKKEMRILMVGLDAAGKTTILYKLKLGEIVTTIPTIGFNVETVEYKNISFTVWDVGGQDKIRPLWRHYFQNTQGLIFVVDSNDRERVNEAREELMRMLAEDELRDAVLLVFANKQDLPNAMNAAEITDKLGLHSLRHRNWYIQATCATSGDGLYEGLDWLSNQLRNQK
UniProt Q61768: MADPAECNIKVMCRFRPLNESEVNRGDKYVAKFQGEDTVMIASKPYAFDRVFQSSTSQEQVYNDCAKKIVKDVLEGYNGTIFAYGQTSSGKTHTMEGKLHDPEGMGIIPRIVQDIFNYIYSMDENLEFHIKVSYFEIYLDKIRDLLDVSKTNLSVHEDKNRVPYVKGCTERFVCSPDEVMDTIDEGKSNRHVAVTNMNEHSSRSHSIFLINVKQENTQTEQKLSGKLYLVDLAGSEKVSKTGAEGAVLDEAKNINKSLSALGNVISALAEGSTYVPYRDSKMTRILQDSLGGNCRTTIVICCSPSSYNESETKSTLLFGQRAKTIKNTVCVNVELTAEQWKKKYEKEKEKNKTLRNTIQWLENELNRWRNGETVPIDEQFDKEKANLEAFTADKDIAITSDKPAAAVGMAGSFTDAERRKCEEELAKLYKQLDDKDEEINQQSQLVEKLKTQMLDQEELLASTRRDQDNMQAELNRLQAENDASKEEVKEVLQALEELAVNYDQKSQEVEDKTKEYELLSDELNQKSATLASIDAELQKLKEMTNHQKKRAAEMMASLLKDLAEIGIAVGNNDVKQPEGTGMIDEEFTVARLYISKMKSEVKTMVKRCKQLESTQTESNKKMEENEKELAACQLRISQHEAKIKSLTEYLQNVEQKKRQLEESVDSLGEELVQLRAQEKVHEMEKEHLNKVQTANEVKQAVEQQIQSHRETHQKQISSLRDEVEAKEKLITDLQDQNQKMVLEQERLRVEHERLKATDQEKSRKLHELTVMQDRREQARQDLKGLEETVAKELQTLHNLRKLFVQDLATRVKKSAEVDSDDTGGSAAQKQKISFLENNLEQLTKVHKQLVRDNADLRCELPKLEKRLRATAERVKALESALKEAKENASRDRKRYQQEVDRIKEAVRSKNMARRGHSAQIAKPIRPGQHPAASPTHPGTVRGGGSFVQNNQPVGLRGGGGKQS

These are yes or no findings as the source states them, for the method shown. Binding seen in cells or lysates may run through a third protein. Some results given as binding are weak or reduced against the parent protein; the word gives no strength. For part of these data: Sequences can lack the tags named with a protein.

In test [1] the target is T1, glutathione S-transferase (GST)-tagged Golgi-localized γ-ear containing Arf-binding protein 3 (GGA3) fusion protein (UniProt Q9NZ52).
T1 sequence: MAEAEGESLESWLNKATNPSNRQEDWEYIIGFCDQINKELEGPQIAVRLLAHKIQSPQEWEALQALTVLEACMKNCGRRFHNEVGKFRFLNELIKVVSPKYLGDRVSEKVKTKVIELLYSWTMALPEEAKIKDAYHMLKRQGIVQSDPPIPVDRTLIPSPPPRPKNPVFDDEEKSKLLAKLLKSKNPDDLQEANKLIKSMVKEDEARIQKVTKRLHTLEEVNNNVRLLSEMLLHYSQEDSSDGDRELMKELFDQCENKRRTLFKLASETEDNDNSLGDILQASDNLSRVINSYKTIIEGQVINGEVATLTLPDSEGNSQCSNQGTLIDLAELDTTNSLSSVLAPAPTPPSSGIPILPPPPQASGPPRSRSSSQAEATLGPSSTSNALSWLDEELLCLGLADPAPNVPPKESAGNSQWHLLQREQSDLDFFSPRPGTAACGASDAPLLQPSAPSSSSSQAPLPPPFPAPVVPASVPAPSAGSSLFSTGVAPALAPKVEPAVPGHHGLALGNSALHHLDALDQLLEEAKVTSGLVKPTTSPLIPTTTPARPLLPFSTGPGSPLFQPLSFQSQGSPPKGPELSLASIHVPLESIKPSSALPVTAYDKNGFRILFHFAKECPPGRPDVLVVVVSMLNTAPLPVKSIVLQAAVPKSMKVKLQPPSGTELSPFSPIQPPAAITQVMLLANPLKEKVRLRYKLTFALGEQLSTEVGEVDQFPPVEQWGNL
The test can be described thus: pull-down.

The target of test [2] is Arf1 (endogenous, WT-MEFs) (mouse (endogenous in WT-MEFs)) (UniProt P84078). The test can be described thus: pull-down.

Turning to “Arf1 (endogenous, T24 bladder cancer cells) (from UniProt P84077 1-181)”, the binding entry in test [1] is “binds”.

On to “Arf1 (endogenous, WT-MEFs) (from UniProt P84078 1-181)”, for which the binding result in test [1] was “binds”. With “KIF5B (endogenous, WT-MEFs) (from UniProt Q61768 1-963)”, the binding result in test [2] was “binds”.
